For eight molecules, binding results are on record in PMC4213368, “Elucidation of a protein-protein interaction network involved in Corynebacterium glutamicum cell wall biosynthesis as determined by bacterial two-hybrid analysis” (Glycoconjugate Journal, 2014).

What all share (test): two-hybrid; bacterial adenylate cyclase two-hybrid (BACTH) in E. coli cya BTH101; T25 and T18 fusions at N- or C-terminus co-expressed; co-transformants spotted on LB/X-gal, MacConkey/maltose and M63 plates with 0.5 mM IPTG, colour read after 48 h at 30 °C; 577 pairs screened; results as summarised in Table 2
Test [1] addresses T1, AftA (Corynebacterium glutamicum ATCC 13032) (UniProt Q8NTW4).
T1 sequence: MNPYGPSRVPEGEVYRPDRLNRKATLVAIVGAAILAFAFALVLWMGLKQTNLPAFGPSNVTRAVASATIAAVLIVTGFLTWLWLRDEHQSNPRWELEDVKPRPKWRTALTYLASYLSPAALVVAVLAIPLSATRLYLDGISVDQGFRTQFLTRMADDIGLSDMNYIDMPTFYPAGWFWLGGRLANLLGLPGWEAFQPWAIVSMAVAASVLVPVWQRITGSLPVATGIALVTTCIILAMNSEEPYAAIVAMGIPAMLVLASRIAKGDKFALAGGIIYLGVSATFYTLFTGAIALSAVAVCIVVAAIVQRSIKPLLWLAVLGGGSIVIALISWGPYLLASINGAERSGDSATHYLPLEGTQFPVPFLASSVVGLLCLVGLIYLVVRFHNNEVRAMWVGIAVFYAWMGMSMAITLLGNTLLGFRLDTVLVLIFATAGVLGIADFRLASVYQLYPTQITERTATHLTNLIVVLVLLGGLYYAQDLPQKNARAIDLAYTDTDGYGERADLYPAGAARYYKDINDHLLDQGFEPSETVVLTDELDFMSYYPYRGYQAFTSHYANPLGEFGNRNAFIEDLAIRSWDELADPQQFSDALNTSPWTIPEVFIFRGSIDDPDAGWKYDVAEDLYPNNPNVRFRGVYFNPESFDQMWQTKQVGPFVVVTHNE

In test [2] the target is T2, AftB (Corynebacterium glutamicum ATCC 13032) (UniProt Q8NLR0).
T2 sequence: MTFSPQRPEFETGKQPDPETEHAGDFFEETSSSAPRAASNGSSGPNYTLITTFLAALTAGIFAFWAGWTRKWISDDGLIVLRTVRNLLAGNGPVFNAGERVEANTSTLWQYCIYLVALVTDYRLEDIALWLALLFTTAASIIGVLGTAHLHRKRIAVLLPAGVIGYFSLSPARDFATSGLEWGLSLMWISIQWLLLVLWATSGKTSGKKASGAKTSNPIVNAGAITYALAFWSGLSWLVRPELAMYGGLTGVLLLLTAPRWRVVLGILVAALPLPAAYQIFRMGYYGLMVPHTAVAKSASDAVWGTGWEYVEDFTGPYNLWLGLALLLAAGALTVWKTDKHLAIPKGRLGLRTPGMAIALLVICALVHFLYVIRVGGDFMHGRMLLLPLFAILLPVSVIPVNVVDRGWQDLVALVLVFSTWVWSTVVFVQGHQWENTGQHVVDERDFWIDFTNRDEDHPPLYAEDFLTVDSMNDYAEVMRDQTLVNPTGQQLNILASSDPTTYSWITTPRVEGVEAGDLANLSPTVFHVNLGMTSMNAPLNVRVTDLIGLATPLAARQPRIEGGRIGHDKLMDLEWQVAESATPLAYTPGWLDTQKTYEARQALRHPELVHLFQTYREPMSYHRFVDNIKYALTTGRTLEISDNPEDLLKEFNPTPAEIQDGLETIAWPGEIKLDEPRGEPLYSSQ

In test [3] the target is T3, AftC (Corynebacterium glutamicum ATCC 13032) (UniProt Q8NPB7).
T3 sequence: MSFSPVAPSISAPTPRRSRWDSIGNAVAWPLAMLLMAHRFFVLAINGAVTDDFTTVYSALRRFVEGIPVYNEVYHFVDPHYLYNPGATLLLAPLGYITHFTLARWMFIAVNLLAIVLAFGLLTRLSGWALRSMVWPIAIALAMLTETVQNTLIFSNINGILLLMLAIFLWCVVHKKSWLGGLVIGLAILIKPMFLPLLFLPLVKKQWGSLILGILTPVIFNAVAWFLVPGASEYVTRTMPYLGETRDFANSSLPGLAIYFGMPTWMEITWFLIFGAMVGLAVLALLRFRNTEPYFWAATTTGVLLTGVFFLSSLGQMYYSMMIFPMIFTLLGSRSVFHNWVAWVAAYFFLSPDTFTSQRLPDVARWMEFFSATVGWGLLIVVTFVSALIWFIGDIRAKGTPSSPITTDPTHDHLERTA

Test [4] deals with AftD (Corynebacterium glutamicum ATCC 13032).
For test [5], the target named is DprE1 (Corynebacterium glutamicum ATCC 13032).
Test [6] addresses DprE2 (Corynebacterium glutamicum ATCC 13032).
Test [7] addresses Emb (Corynebacterium glutamicum ATCC 13032).

No constants are given. Whether binding was seen depends on the method and setting. For part of these data: Binding calls can cover weak binding; strength is not graded here.

For “WbbL (Corynebacterium glutamicum ATCC 13032) (enzyme)”, the binding entry in test [1], in test [2] and in test [3] was “no binding” in each case.

As to “UbiA (Corynebacterium glutamicum ATCC 13032) (enzyme)”, the binding result in test [1], in test [2] and in test [3] was “binds” throughout.

As to “WecA (Corynebacterium glutamicum ATCC 13032) (enzyme)”, the binding entry is recorded as “no binding” in test [1], “binds” in test [2] and “binds” in test [3].

Take “GlfT2 (Corynebacterium glutamicum ATCC 13032) (enzyme)”: the binding result in test [1], in test [2] and in test [3] was “no binding” each time.

Regarding “GlfT1 (Corynebacterium glutamicum ATCC 13032) (enzyme)”, the binding entry is listed as “no binding” in test [1], “binds” in test [2] and “no binding” in test [3].

B1: AftB (enzyme, Corynebacterium glutamicum ATCC 13032, UniProt Q8NLR0 1-686, looked up)
chain: MTFSPQRPEFETGKQPDPETEHAGDFFEETSSSAPRAASNGSSGPNYTLITTFLAALTAGIFAFWAGWTRKWISDDGLIVLRTVRNLLAGNGPVFNAGERVEANTSTLWQYCIYLVALVTDYRLEDIALWLALLFTTAASIIGVLGTAHLHRKRIAVLLPAGVIGYFSLSPARDFATSGLEWGLSLMWISIQWLLLVLWATSGKTSGKKASGAKTSNPIVNAGAITYALAFWSGLSWLVRPELAMYGGLTGVLLLLTAPRWRVVLGILVAALPLPAAYQIFRMGYYGLMVPHTAVAKSASDAVWGTGWEYVEDFTGPYNLWLGLALLLAAGALTVWKTDKHLAIPKGRLGLRTPGMAIALLVICALVHFLYVIRVGGDFMHGRMLLLPLFAILLPVSVIPVNVVDRGWQDLVALVLVFSTWVWSTVVFVQGHQWENTGQHVVDERDFWIDFTNRDEDHPPLYAEDFLTVDSMNDYAEVMRDQTLVNPTGQQLNILASSDPTTYSWITTPRVEGVEAGDLANLSPTVFHVNLGMTSMNAPLNVRVTDLIGLATPLAARQPRIEGGRIGHDKLMDLEWQVAESATPLAYTPGWLDTQKTYEARQALRHPELVHLFQTYREPMSYHRFVDNIKYALTTGRTLEISDNPEDLLKEFNPTPAEIQDGLETIAWPGEIKLDEPRGEPLYSSQ
notes: AftB, arabinofuranosyltransferase, transmembrane, Corynebacterium glutamicum ATCC 13032; gene amplified from genomic DNA; One molecule for all four fusion forms; also called arabinofuranosyltransferase AftB; AftB-T25^N; source: E. coli BTH101, bacterial two-hybrid (BACTH) fusion; not shown: T25 or T18 fragment of Bordetella pertussis adenylate cyclase, N-terminal or C-terminal (each tested), kept
For the molecule B1, the binding entry was “no binding” in test [4], “no binding” in test [5], “binds” in test [6] and “binds” in test [7].

B2: AftA (enzyme, Corynebacterium glutamicum ATCC 13032, UniProt Q8NTW4 1-661, looked up)
chain: MNPYGPSRVPEGEVYRPDRLNRKATLVAIVGAAILAFAFALVLWMGLKQTNLPAFGPSNVTRAVASATIAAVLIVTGFLTWLWLRDEHQSNPRWELEDVKPRPKWRTALTYLASYLSPAALVVAVLAIPLSATRLYLDGISVDQGFRTQFLTRMADDIGLSDMNYIDMPTFYPAGWFWLGGRLANLLGLPGWEAFQPWAIVSMAVAASVLVPVWQRITGSLPVATGIALVTTCIILAMNSEEPYAAIVAMGIPAMLVLASRIAKGDKFALAGGIIYLGVSATFYTLFTGAIALSAVAVCIVVAAIVQRSIKPLLWLAVLGGGSIVIALISWGPYLLASINGAERSGDSATHYLPLEGTQFPVPFLASSVVGLLCLVGLIYLVVRFHNNEVRAMWVGIAVFYAWMGMSMAITLLGNTLLGFRLDTVLVLIFATAGVLGIADFRLASVYQLYPTQITERTATHLTNLIVVLVLLGGLYYAQDLPQKNARAIDLAYTDTDGYGERADLYPAGAARYYKDINDHLLDQGFEPSETVVLTDELDFMSYYPYRGYQAFTSHYANPLGEFGNRNAFIEDLAIRSWDELADPQQFSDALNTSPWTIPEVFIFRGSIDDPDAGWKYDVAEDLYPNNPNVRFRGVYFNPESFDQMWQTKQVGPFVVVTHNE
notes: AftA, arabinofuranosyltransferase, transmembrane, Corynebacterium glutamicum ATCC 13032; gene amplified from genomic DNA; One molecule for all four fusion forms; also called arabinofuranosyltransferase AftA; AftA-T25^N; source: E. coli BTH101, bacterial two-hybrid (BACTH) fusion; not shown: T25 or T18 fragment of Bordetella pertussis adenylate cyclase, N-terminal or C-terminal (each tested), kept
B2: the binding entry in test [4] is recorded as “no binding”; in test [5], “no binding”; in test [6], “binds”; in test [7], “binds”.

B3: AftC (enzyme, Corynebacterium glutamicum ATCC 13032, UniProt Q8NPB7 1-418, looked up)
chain: MSFSPVAPSISAPTPRRSRWDSIGNAVAWPLAMLLMAHRFFVLAINGAVTDDFTTVYSALRRFVEGIPVYNEVYHFVDPHYLYNPGATLLLAPLGYITHFTLARWMFIAVNLLAIVLAFGLLTRLSGWALRSMVWPIAIALAMLTETVQNTLIFSNINGILLLMLAIFLWCVVHKKSWLGGLVIGLAILIKPMFLPLLFLPLVKKQWGSLILGILTPVIFNAVAWFLVPGASEYVTRTMPYLGETRDFANSSLPGLAIYFGMPTWMEITWFLIFGAMVGLAVLALLRFRNTEPYFWAATTTGVLLTGVFFLSSLGQMYYSMMIFPMIFTLLGSRSVFHNWVAWVAAYFFLSPDTFTSQRLPDVARWMEFFSATVGWGLLIVVTFVSALIWFIGDIRAKGTPSSPITTDPTHDHLERTA
notes: AftC, arabinofuranosyltransferase, transmembrane, Corynebacterium glutamicum ATCC 13032; gene amplified from genomic DNA; One molecule for all four fusion forms; also called arabinofuranosyltransferase AftC; AftC-T25^C; source: E. coli BTH101, bacterial two-hybrid (BACTH) fusion; not shown: T25 or T18 fragment of Bordetella pertussis adenylate cyclase, N-terminal or C-terminal (each tested), kept
Turning to B3, the binding entry in test [4] is on record as “no binding”; in test [5], “no binding”; in test [6], “binds”; in test [7] it was “no binding”.
